Source: patent publication US20090100532A1, “TRANSGENIC MICE EXPRESSING HYPERSENSITIVE NICOTINIC RECEPTORS” (CALIFORNIA INSTITUTE OF TECHNOLOGY, priority 2007, published 2009)
For at least one compound, name, drawing or mass did not settle the structure.

Protein sequences, listed by entry. Tags and fused reporters are not part of them. Residues count along the entry.
UniProt P12392, 21-495: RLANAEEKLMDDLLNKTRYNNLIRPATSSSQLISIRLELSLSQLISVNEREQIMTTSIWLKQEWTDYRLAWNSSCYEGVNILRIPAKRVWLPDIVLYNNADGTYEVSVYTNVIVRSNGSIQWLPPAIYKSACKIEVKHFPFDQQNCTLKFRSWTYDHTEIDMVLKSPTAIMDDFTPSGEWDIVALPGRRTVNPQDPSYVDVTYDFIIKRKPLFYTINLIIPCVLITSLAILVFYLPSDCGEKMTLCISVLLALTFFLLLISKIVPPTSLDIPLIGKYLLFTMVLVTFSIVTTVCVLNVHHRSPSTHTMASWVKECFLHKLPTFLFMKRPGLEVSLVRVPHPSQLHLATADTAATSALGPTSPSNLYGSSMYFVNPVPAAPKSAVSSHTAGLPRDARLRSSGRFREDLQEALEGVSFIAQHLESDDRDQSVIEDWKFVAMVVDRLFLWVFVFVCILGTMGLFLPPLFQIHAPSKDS
UniProt P32297, 32-505: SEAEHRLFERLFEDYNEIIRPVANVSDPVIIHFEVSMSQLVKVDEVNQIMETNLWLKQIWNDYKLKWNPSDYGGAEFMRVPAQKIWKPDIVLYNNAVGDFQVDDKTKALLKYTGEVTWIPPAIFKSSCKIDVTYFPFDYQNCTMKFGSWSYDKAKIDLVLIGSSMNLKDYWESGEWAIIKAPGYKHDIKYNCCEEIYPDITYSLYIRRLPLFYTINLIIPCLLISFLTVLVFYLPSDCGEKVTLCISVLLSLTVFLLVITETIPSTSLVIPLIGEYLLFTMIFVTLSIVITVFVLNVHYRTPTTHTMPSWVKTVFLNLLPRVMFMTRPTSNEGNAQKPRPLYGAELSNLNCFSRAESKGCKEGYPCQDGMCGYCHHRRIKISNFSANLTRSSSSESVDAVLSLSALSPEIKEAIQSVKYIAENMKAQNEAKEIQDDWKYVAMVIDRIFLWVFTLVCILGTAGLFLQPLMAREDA

What was measured:
α3β4β3 receptors = target: T1, α3β4β3 receptors (UniProt P12392+P32297); assay: Two-electrode voltage clamp, X. laevis oocytes, α3β4β3; type: cell-based
T1 construct: expressed in transfected cells; host or cells: Xenopus laevis oocytes injected with cRNA
Experimental: (§1) Two-Electrode Voltage-Clamp Electrophysiology. Stage V to VI X. laevis oocytes were isolated as described previously (Quick and Lester, Ion Channels of Excitable Cells, Narahashi T ed., pp 261-279, 1994). Stock RNAs were diluted into diethyl pyrocarbonatetreated water and injected 1 day after isolation. RNA was injected in a final volume of 50 nl per oocyte using a digital microdispenser (Drummond Scientific, Broomall, Pa.). After injection, oocytes were incubated in ND-96 solution (96 mM NaCl, 2 mM KCl, 1 mM CaCl2, 1 mM MgCl2, and 5 mM HEPES/NaOH, pH 7.6) supplemented with 50 μg/ml gentamicin and 2.5 mM sodium pyruvate. After 1 to 4 days for nAChR expression, oocytes were used for recording or confocal microscopy.
(§2) Agonist-activated nicotinic receptor responses were measured by two-electrode voltage-clamp recording using a GeneClamp 500 (Molecular Devices, Sunnyvale, Calif.) voltage clamp. Electrodes were constructed from Kwik-Fil borosilicate glass capillary tubes (1B150F-4; WPI, Sarasota, Fla.) using a programmable microelectrode puller (P-87; Sutter Instrument Company, Novato, Calif.). The electrodes had tip resistances of 0.8 to 2.0 MΩ after filling with 3 M KCl. […]

α3β4 receptors = target: T2, α3β4 receptors (UniProt P12392+P32297); assay: Two-electrode voltage clamp, X. laevis oocytes, α3β4; type: cell-based
T2 construct: expressed in transfected cells; host or cells: Xenopus laevis oocytes injected with cRNA
Experimental: as §1, §2

Molecule `CC(=O)OCC[N+](C)(C)C` [ACh, acetylcholine] has a Hill coefficient (α3β4β3 receptors) of 2.0±0.3 and a Hill coefficient (α3β4 receptors) of 1.5±0.1.
